Experimental findings from article PMC3945225, “RBPJ, the Major Transcriptional Effector of Notch Signaling, Remains Associated with Chromatin throughout Mitosis, Suggesting a Role in Mitotic Bookmarking” are described below.

Amino acid sequences for entries named in this document (tags omitted). A change or cut given only in a name is not applied to a line headed by its entry. Chains listed by the source or under a name are the forms on record and can include a tag or linker.
Flag-tagged RBPJ (P31266, form named): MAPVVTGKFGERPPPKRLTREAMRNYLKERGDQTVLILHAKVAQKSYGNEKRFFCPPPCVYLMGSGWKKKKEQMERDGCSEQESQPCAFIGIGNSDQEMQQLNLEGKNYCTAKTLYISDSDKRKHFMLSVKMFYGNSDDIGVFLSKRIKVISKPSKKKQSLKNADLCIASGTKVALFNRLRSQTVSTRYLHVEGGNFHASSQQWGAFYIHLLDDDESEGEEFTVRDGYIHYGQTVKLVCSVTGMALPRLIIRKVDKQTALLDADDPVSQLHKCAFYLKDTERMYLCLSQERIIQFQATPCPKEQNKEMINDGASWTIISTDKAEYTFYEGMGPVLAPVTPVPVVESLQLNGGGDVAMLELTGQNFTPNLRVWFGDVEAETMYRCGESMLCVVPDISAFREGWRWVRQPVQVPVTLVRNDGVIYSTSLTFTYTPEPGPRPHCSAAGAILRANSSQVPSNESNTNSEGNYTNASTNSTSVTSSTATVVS

The target of the assay is Flag-tagged RBPJ (mouse) (UniProt P31266). As to the kind of experiment: pull-down; Flag-tagged protein from 293T lysate bound overnight to anti-Flag (M2) agarose at 4°C, washed four times with PBS/0.05% Triton X-100, then incubated overnight with F9 cell lysate; four washes, eluted with Laemmli buffer, western blot (the methods head it 'Co-IP'); only the target …. For orientation: A western blot detects proteins with antibodies after separation by electrophoresis.

Results are given in words; binding and its absence hold for the method and conditions named. Binding seen in cells or lysates may run through a third protein. Some entries that bind do so weakly or less than the wild type.

B1: endogenous CTCF (CCCTC-binding factor) (protein, UniProt Q61164 1-736)
chain: MEGEAVEAIVEESETFIKGKERKTYQRRREGGQEEDACHLPQNQTDGGEVVQDVNSSVQMVMMEQLDPTLLQMKTEVMEGTVAPEAEAAVDDTQIITLQVVNMEEQPINIGELQLVQVPVPVTVPVATTSVEELQGAYENEVSKEGLAESEPMICHTLPLPEGFQVVKVGANGEVETLEQGELPPQEDSSWQKDPDYQPPAKKTKKTKKSKLRYTEEGKDVDVSVYDFEEEQQEGLLSEVNAEKVVGNMKPPKPTKIKKKGVKKTFQCELCSYTCPRRSNLDRHMKSHTDERPHKCHLCGRAFRTVTLLRNHLNTHTGTRPHKCPDCDMAFVTSGELVRHRRYKHTHEKPFKCSMCDYASVEVSKLKRHIRSHTGERPFQCSLCSYASRDTYKLKRHMRTHSGEKPYECYICHARFTQSGTMKMHILQKHTENVAKFHCPHCDTVIARKSDLGVHLRKQHSYIEQGKKCRYCDAVFHERYALIQHQKSHKNEKRFKCDQCDYACRQERHMIMHKRTHTGEKPYACSHCDKTFRQKQLLDMHFKRYHDPNFVPAAFVCSKCGKTFTRRNTMARHADNCAGPDGVEGENGGETKKSKRGRKRKMRSKKEDSSDSEENAEPDLDDNEEEEEPAVEIEPEPEPQPQPPPPPQPVAPAPPPAKKRRGRPPGRTNQPKQNQPTAIIQVEDQNTGAIENIIVEVKKEPDAEPAEGEEEEAQAATTDAPNGDLTPEMILSMMDR
On to B1, for which the binding entry is “binds”.
